Source: the supplement of paper PMC10849652
Some of the results follow.

The chains behind the UniProt entries cited, without tags or fusion partners. Where a name states a change or a piece, a line headed by the entry shows the natural chain unless it says otherwise.
UniProt Q8IWB9: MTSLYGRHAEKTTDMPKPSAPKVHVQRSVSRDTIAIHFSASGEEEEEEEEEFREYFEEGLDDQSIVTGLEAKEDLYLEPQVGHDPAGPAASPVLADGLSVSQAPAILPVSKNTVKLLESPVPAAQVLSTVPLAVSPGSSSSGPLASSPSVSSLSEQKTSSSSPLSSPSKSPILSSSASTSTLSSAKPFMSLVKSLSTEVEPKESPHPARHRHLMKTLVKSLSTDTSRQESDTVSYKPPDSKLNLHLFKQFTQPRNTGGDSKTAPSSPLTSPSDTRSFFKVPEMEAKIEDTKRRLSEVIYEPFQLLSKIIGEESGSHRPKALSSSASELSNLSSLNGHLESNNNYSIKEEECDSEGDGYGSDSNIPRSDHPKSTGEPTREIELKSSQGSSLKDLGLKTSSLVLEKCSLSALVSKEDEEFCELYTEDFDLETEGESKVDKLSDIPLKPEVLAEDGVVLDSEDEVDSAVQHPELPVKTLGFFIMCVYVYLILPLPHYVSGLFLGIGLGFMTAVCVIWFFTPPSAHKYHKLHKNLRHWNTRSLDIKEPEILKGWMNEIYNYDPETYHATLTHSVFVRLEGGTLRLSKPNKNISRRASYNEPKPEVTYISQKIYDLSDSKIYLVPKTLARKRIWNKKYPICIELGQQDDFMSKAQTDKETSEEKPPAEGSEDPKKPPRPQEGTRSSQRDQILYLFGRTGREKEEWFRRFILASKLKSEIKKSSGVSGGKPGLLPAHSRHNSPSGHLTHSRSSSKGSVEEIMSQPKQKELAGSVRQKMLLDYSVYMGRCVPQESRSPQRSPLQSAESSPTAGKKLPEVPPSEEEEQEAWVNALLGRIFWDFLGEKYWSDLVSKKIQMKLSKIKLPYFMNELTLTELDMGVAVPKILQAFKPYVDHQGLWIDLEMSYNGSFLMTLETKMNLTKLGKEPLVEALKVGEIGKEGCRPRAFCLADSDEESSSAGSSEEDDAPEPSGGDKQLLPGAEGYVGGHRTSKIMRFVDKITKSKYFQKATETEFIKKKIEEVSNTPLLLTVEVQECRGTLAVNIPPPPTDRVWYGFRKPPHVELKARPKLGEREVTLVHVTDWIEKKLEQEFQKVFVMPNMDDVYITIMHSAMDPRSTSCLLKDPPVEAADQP
UniProt Q66K14, whole entry, looked up: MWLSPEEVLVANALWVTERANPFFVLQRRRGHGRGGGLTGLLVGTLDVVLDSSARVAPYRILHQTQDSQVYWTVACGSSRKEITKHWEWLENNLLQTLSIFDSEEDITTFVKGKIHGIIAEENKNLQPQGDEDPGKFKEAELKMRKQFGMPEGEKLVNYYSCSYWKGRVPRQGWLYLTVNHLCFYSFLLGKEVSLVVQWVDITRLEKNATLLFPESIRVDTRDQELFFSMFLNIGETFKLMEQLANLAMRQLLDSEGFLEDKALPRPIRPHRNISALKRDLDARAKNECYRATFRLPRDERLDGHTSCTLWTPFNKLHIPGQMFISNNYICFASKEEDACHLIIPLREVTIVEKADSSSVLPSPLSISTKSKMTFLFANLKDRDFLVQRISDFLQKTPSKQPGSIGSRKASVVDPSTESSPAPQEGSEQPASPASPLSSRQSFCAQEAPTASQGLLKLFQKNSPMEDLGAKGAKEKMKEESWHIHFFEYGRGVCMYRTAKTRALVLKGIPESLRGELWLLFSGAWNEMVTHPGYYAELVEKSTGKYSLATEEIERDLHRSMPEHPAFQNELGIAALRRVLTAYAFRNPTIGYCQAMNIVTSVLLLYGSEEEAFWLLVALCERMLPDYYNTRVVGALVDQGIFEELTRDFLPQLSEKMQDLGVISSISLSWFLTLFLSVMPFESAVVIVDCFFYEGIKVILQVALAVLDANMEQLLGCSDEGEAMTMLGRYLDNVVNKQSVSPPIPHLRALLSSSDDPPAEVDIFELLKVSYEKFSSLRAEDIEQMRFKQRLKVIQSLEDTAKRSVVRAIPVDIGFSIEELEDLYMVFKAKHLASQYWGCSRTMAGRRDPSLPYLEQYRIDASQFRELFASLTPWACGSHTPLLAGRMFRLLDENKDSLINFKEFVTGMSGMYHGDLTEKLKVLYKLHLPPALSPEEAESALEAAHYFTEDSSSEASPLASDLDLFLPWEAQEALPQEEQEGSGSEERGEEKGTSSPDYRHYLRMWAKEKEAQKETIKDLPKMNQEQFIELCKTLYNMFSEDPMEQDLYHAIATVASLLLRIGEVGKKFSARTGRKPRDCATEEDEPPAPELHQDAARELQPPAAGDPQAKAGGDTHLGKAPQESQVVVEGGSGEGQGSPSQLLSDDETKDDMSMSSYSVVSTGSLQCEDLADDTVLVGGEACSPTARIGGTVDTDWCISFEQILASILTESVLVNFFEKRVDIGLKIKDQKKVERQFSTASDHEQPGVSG
UniProt Q9Y5J6: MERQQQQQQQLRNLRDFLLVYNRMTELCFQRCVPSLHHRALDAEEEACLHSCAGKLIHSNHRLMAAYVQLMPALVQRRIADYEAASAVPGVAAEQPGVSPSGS
UniProt Q12800: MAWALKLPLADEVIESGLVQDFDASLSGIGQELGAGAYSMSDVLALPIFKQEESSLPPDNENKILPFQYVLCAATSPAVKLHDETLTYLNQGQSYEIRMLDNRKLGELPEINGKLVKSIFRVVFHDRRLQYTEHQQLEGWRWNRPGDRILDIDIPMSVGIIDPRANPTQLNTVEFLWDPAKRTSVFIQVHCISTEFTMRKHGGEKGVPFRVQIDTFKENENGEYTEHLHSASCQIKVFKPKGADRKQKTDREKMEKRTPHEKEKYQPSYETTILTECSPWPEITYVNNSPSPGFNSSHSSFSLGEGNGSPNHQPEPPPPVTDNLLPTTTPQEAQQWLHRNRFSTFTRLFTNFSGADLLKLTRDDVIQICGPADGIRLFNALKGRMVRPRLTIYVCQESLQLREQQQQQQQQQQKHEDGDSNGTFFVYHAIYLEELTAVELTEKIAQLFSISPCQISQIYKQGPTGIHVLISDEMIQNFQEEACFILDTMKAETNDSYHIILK
UniProt Q96BZ9: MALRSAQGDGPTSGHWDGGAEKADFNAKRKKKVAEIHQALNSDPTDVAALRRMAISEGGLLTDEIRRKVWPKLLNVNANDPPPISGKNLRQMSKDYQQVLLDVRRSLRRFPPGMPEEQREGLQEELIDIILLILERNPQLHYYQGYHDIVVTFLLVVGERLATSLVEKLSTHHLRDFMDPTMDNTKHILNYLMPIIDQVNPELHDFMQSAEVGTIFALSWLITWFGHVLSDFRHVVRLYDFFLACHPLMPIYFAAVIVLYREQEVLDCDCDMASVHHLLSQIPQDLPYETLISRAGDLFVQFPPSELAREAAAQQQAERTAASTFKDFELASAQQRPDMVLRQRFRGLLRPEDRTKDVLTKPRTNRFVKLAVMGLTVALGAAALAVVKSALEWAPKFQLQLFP
UniProt Q9H5Q4: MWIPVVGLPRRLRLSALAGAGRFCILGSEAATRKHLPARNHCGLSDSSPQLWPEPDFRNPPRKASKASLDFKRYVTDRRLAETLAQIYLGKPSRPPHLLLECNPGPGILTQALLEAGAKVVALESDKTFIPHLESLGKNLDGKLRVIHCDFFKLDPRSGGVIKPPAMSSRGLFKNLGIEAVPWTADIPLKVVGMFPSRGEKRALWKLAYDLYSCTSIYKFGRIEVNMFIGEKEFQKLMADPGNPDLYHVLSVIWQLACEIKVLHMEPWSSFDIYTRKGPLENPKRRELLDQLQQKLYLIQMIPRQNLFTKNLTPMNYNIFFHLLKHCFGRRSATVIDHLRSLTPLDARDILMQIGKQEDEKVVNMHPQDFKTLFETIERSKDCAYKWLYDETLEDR
UniProt P36897: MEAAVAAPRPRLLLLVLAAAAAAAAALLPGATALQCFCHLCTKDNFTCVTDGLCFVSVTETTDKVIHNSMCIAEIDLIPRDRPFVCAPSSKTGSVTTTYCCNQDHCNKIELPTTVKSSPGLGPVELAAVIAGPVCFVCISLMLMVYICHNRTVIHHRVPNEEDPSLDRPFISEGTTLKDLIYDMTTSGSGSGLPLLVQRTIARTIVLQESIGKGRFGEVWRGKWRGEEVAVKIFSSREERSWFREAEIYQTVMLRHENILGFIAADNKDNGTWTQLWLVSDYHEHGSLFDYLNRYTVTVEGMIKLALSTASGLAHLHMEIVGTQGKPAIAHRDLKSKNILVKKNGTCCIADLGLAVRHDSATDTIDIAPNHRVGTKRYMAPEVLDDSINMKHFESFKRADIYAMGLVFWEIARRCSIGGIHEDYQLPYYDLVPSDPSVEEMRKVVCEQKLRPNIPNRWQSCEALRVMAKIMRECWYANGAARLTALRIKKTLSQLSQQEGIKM
UniProt Q9BTW9: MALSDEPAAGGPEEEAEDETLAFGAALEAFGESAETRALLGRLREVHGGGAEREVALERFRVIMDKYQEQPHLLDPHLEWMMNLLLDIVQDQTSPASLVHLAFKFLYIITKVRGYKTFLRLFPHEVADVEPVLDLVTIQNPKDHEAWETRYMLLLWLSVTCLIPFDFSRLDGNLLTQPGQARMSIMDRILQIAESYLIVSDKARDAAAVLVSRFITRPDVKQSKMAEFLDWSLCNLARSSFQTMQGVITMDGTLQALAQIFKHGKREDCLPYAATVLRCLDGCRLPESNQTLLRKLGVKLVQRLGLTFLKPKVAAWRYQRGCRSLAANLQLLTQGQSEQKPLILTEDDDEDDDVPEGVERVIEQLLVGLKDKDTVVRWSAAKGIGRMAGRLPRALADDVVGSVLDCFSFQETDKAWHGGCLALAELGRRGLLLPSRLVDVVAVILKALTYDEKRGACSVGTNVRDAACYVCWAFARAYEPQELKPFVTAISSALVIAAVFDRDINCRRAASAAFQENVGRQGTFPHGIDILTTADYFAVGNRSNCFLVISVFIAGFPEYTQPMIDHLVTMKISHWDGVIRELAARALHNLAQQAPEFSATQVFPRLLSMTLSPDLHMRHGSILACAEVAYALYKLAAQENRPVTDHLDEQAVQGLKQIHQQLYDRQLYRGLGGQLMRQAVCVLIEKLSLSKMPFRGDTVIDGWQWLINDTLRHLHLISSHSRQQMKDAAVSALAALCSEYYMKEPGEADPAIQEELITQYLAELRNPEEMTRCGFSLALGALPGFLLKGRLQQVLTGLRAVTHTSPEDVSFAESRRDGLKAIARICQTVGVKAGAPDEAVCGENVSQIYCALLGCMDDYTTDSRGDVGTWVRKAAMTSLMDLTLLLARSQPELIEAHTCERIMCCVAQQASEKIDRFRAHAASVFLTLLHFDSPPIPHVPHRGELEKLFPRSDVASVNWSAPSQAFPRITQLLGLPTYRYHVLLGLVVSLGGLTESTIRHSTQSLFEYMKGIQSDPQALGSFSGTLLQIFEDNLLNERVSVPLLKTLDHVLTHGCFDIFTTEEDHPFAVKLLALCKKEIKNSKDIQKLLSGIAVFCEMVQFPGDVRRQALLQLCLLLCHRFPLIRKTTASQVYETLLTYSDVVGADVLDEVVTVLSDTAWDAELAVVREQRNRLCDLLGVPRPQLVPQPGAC
UniProt Q9UHD2: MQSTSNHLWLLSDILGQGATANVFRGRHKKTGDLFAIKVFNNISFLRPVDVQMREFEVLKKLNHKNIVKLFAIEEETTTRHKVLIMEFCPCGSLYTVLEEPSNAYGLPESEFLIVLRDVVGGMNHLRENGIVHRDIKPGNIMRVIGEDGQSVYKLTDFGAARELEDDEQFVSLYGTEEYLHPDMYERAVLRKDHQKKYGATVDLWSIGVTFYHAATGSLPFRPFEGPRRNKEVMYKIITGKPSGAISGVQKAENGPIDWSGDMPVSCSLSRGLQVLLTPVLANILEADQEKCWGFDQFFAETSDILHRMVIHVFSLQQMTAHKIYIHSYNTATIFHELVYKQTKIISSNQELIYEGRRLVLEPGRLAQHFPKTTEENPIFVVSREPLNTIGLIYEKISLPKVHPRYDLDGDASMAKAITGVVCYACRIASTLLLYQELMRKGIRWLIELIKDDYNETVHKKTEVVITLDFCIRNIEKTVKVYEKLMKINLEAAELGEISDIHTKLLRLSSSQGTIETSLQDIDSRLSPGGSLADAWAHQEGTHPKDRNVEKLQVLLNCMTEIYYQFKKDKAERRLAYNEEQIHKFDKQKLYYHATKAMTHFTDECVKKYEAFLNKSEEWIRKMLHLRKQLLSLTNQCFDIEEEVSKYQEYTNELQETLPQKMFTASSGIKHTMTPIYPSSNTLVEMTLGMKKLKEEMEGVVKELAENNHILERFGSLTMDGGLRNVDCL
UniProt Q9NZ01: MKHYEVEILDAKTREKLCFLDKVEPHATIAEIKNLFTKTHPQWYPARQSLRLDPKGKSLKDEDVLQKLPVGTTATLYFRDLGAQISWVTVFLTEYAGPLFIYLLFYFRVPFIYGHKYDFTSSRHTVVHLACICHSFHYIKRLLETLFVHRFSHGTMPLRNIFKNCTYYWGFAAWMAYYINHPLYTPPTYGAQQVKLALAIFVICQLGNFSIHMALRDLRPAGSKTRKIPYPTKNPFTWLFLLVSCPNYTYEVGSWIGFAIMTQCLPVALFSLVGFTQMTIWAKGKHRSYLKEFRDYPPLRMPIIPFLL

Columns and labels:
Test in all cases: log2 fold change, soluble protein after heating vs DMSO (PISA); higher = thermal stabilisation; K562 cells, 10 uM, 30 min; active = over 0.2 and 3.5 SD of the protein, either way, in both replicates (recomputed)
[1] = compound: CC1=C(C=C(C=C1)NC(=O)C2=CC(=CC=C2)C(C)(C)C#N)NC3=CC4=C(C=C3)N=CN(C4=O)C
Summary of the method: (§1)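 K562 cells at 2×10^6 cells/mL were treated for 30 min with 10 μM compound, and aliquots were heated for 3 min over 48°C-58°C before pooling. Extraction used PBS with 0.5% NP-40 at 4°C, and soluble protein was the supernatant after 21,000xg for 90 min, measured by TMTpro 16plex LC-MS/MS with channel sums equalised. Thermal stability values, relative to control samples and from duplicates, are log2 fold changes.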

[2] = compound: CC1=C(C=C(C=C1)NC(=O)C2=CC(=CC=C2)N(C)C)NC(=O)C3=CC=C(C=C3)O
Summary of the method: as §1

[3] = compound: CC1=CC=C(C=C1)SC2=C3C=C(SC3=CN=C2)C(=O)N
Summary of the method: as §1

[4] = compound: CCCCN(Cc1ccc(C(=O)NO)cc1)C(=O)Nc1ccccc1 [Nexturastat A]
Summary of the method: as §1

[5] = compound: CCCS(=O)(=O)Nc1ccc(F)c(C(=O)c2c[nH]c3ncc(-c4ccc(Cl)cc4)cc23)c1F [vemurafenib]
Summary of the method: as §1

[6] = compound: CCCS(=O)(=O)Nc1ccc(F)c(C(=O)c2c[nH]c3ncc(Cl)cc23)c1F
Summary of the method: as §1

[7] = compound: CCCc1cc(C)[nH]c(=O)c1CNC(=O)c1cc(-c2ccnc(N3CCN(C)CC3)c2)cc2c1cnn2C(C)C
Summary of the method: as §1

[8] = compound: CCN(CCCOc1ccc2c(Nc3cc(CC(=O)Nc4cccc(F)c4)[nH]n3)ncnc2c1)CCOP(=O)(O)O [barasertib]
Summary of the method: as §1

[9] = compound: CC[C@@H]1C(=O)N(C)c2cnc(Nc3ccc(C(=O)N[C@H]4CC[C@H](N5CCN(CC6CC6)CC5)CC4)cc3OC)nc2N1C(C)C [volasertib]
Summary of the method: as §1

[10] = compound: CC[C@H](C)N1C=C(C2=C(C=C(C=C21)C3=CN=C(C=C3)N4CCNCC4)C(=O)NCC5=C(C=C(NC5=O)C)C)C
Summary of the method: as §1

[11] = compound: CC[C@H](C)[C@@H](C(=O)N[C@@H]([C@@H](C)O)C(=O)N[C@@H](CC(C)C)C(=O)[C@]1(CO1)C)NC(=O)[C@H]([C@@H](C)CC)N(C)C(=O)C [epoxomicin]
Summary of the method: as §1

[12] = compound: CCn1cc(-c2ccnc3[nH]c(-c4cccc(CN(C)C)c4)cc23)c(-c2ccc(NC(=O)N(C)C)cc2)n1
Summary of the method: as §1

[13] = compound: CN(C)CC(=O)Nc1ccc2[nH]c(=O)c3ccccc3c2c1
Summary of the method: as §1

[14] = compound: CN1C2=C(C3=C1C(=O)N(N=C3)CC4=CC(=CC=C4)N)SC(=C2)S(=O)C
Summary of the method: as §1

[15] = compound: CN1CCC(CNc2ccc3ncc(-c4cccc(OC(F)(F)F)c4)n3n2)CC1
Summary of the method: as §1

[16] = compound: CCN(CC)Cc1ccc2cc(COC(=O)Nc3ccc(C(=O)NO)cc3)ccc2c1 [givinostat]
Summary of the method: as §1

[17] = compound: CC[C@@H]1C(=O)N(C)c2cnc(Nc3ccc(C(=O)NC4CCN(C)CC4)cc3OC)nc2N1C1CCCC1
Summary of the method: as §1

[18] = compound: CC1=NC(=CC=C1)C2=C(N=C(N2)C(C)(C)C)C3=CC4=NC=CN=C4C=C3
Summary of the method: as §1

[19] = compound: CCn1c(C(=O)N(C2CC2)C2CC2)cc2c3c(ncn3C)c(Nc3cc(C)n(C)n3)nc21
Summary of the method: as §1

[20] = compound: CN(CCOC1=CC=C(C=C1)C[C@H]2C(=O)NC(=O)S2)C3=CC=CC=N3 (racemic) [rosiglitazone]
Summary of the method: as §1

Target | log2 fold change [1] | log2 fold change [2] | log2 fold change [3] | log2 fold change [4] | log2 fold change [5] | log2 fold change [6] | log2 fold change [7] | log2 fold change [8] | log2 fold change [9] | log2 fold change [10] | log2 fold change [11] | log2 fold change [12] | log2 fold change [13] | log2 fold change [14] | log2 fold change [15] | log2 fold change [16] | log2 fold change [17] | log2 fold change [18] | log2 fold change [19] | log2 fold change [20]
TK1 (UniProt K7ERV3) | inactive: -0.185 | inactive: -0.055 | inactive: -0.273 | inactive: -0.178 | inactive: -0.077 | inactive: -0.009 | inactive: -0.149 | inactive: 0.088 | inactive: 0.055 | inactive: -0.163 | inactive: 0.007 | inactive: -0.014 | inactive: 0.084 | inactive: -0.024 | inactive: 0.005 |  |  |  |  | 
TCOF1 isoform 3 (UniProt Q13428) | inactive: -0.051 | inactive: 0.262 |  | inactive: -0.429 |  |  |  |  |  |  | inactive: -0.352 | inactive: 0.155 |  |  | inactive: -0.436 | inactive: 0.047 | inactive: 0.001 |  |  | 
TEX2 isoform 2 (UniProt Q8IWB9) | inactive: -0.024 | inactive: -0.03 | inactive: -0.103 | inactive: -0.024 | inactive: 0.045 | inactive: 0.025 | inactive: -0.04 | inactive: -0.07 | inactive: -0.036 |  | inactive: 0.074 | inactive: -0.034 | inactive: 0.009 | inactive: -0.084 | inactive: 0.038 | inactive: 0.053 |  | inactive: -0.246 | inactive: -0.049 | inactive: 0.046
TCOF1 isoform 6 (UniProt Q13428) | inactive: 0.148 | inactive: -0.078 |  |  | inactive: 0.146 |  | inactive: 0.545 | inactive: 0.008 |  | inactive: -0.132 |  |  | inactive: -0.219 |  |  | inactive: -0.024 | inactive: 0.04 | inactive: -0.105 |  | 
TBC1D9B (UniProt Q66K14) | inactive: -0.028 | inactive: 0.116 | inactive: 0.05 | active: 0.361 | inactive: 0.095 | inactive: 0.048 | inactive: -0.189 | inactive: 0.04 | active: -0.348 | inactive: 0.053 | inactive: -0.073 | inactive: -0.141 | inactive: 0.021 | inactive: 0.018 | active: -0.328 | inactive: 0.002 | active: -0.58 | inactive: -0.032 |  | 
TIMM10B (UniProt Q9Y5J6) | inactive: -0.053 | inactive: -0.075 | inactive: 0.018 | inactive: -0.05 | inactive: 0.073 | inactive: -0.077 | inactive: -0.057 | inactive: 0.067 | inactive: -0.011 | inactive: -0.064 | inactive: 0.274 | inactive: -0.033 | inactive: -0.12 | inactive: 0.063 | inactive: 0.131 | inactive: 0.061 | inactive: 0.033 |  |  | 
TFPI (UniProt P10646) | inactive: 0.078 | inactive: -0.42 |  | inactive: -0.002 | inactive: 0.039 |  | inactive: -0.235 | inactive: -0.039 |  | inactive: -0.081 | inactive: 0.021 | inactive: 0.086 | inactive: -0.056 | inactive: 0.103 | inactive: 0.379 | inactive: -0.144 |  | inactive: -0.091 | inactive: -0.103 | inactive: -0.103
TENT5C (UniProt Q5VWP2) | inactive: -0.011 | inactive: 0.037 | inactive: -0.019 |  | inactive: 0.097 | inactive: 0.005 | inactive: -0.137 | inactive: 0.01 | inactive: -0.038 | inactive: 0.005 |  | inactive: 0.009 | inactive: 0.031 | inactive: -0.066 | inactive: -0.082 | inactive: 0.014 | inactive: -0.073 | inactive: 0.088 |  | 
TFCP2 (UniProt Q12800) | inactive: 0.206 | inactive: -0.068 |  | inactive: 0.173 |  |  |  | inactive: 0.001 |  | inactive: 0.04 | inactive: -0.041 | inactive: 0.052 |  | inactive: 0.319 | inactive: -0.026 | inactive: 0.207 | inactive: 0.138 | inactive: -0.215 | inactive: -0.172 | inactive: -0.014
TIMM10 (UniProt P62072) | inactive: 0.031 | inactive: -0.078 | inactive: 0.018 | inactive: -0.124 | inactive: 0.058 | inactive: -0.093 | inactive: -0.049 | inactive: 0.022 | inactive: 0.052 | inactive: -0.023 | inactive: 0.032 | inactive: 0.006 | inactive: -0.046 | inactive: -0.074 | inactive: 0.14 | inactive: -0.05 | inactive: 0.029 | inactive: 0.045 |  | 
TBC1D20 isoform 3 (UniProt Q96BZ9) | inactive: -0.048 | inactive: 0.04 | inactive: 0.128 | inactive: 0 | inactive: 0.083 | inactive: 0.166 | inactive: -0.14 | inactive: 0.034 | inactive: -0.153 | inactive: 0.07 | inactive: 0.068 | inactive: 0.028 | inactive: 0.04 |  | inactive: 0.046 | inactive: 0.076 | inactive: 0.273 | inactive: 0.037 |  | 
TIFA (UniProt Q96CG3) | inactive: -0.091 |  | inactive: -0.075 | inactive: 0.001 | inactive: -0.21 | inactive: -0.011 |  |  | inactive: 0.145 |  | inactive: -0.008 | inactive: 0.239 | inactive: -0.156 |  | inactive: -0.114 | inactive: -0.06 |  | inactive: -0.196 | inactive: 0.223 | 
TFB2M (UniProt Q9H5Q4) | inactive: -0.017 | inactive: 0 | inactive: 0.008 | inactive: -0.077 | inactive: 0.035 | inactive: 0.073 | inactive: -0.058 | inactive: 0.048 | active: -0.326 | inactive: 0.049 | inactive: 0.071 | inactive: -0.002 | inactive: 0.031 | inactive: -0.049 | inactive: -0.179 | inactive: 0.017 | inactive: -0.096 | inactive: 0.086 |  | 
TGFBR1 isoform 2 (UniProt P36897) | inactive: -0.112 | inactive: 0.023 | inactive: -0.058 | inactive: 0.038 | inactive: 0.044 | inactive: 0.028 | inactive: -0.062 | inactive: -0.028 | inactive: -0.179 | inactive: -0.022 | inactive: 0.033 | inactive: -0.023 | inactive: -0.028 | inactive: 0.021 | inactive: 0.076 | inactive: 0.07 | inactive: -0.041 |  |  | 
TIPIN (UniProt Q9BVW5) | inactive: -0.118 |  | inactive: -0.075 | inactive: -0.021 | inactive: -0.034 | inactive: -0.117 | inactive: -0.03 | inactive: 0.047 | inactive: -0.002 | inactive: 0.01 | inactive: 0.042 | inactive: 0.025 | inactive: 0.017 | inactive: -0.046 | inactive: -0.048 | inactive: -0.059 | inactive: 0.075 | inactive: 0.005 | inactive: 0.001 | inactive: 0.021
TBCD (UniProt Q9BTW9) | inactive: 0.016 | inactive: 0.003 | inactive: 0.025 | inactive: -0.051 | inactive: 0.005 | inactive: 0.02 | inactive: -0.007 | inactive: 0.019 | active: -0.315 | inactive: 0.074 | inactive: -0.012 | inactive: -0.002 | inactive: 0.033 | inactive: -0.044 | inactive: -0.094 | inactive: 0.012 | inactive: -0.061 | inactive: 0.052 |  | 
TBK1 (UniProt Q9UHD2) | inactive: -0.018 | inactive: -0.03 | inactive: 0.019 | inactive: 0.163 | inactive: -0.012 | inactive: 0.089 | inactive: 0.083 | inactive: 0.028 | inactive: -0.232 | inactive: 0.055 | inactive: 0.019 | inactive: 0.023 | inactive: -0.033 | inactive: 0.172 | inactive: -0.152 | inactive: 0.065 | inactive: -0.093 | inactive: -0.007 |  | 
TECR (UniProt Q9NZ01) | inactive: -0.017 | inactive: -0.034 | inactive: 0.031 | inactive: -0.043 | inactive: 0.021 | inactive: 0.113 | inactive: -0.084 | inactive: 0.007 | active: -0.24 | inactive: 0.015 | inactive: 0.026 | inactive: -0.085 | inactive: 0.042 | inactive: -0.063 | active: -0.347 | inactive: 0.011 | inactive: -0.116 | inactive: 0.069 |  | 

Nothing new here: entries from further up.
Target | log2 fold change [1] | log2 fold change [2] | log2 fold change [3] | log2 fold change [4] | log2 fold change [5] | log2 fold change [6] | log2 fold change [7] | log2 fold change [8] | log2 fold change [9] | log2 fold change [10] | log2 fold change [11] | log2 fold change [12] | log2 fold change [13] | log2 fold change [14] | log2 fold change [15] | log2 fold change [16] | log2 fold change [17] | log2 fold change [18] | log2 fold change [19] | log2 fold change [20]
TBC1D20 isoform 3 (UniProt Q96BZ9) | inactive: -0.048 | inactive: 0.04 | inactive: 0.128 | inactive: 0 | inactive: 0.083 | inactive: 0.166 | inactive: -0.14 | inactive: 0.034 | inactive: -0.153 | inactive: 0.07 | inactive: 0.068 | inactive: 0.028 | inactive: 0.04 |  | inactive: 0.046 | inactive: 0.076 | inactive: 0.273 | inactive: 0.037 |  | 
TIFA (UniProt Q96CG3) | inactive: -0.091 |  | inactive: -0.075 | inactive: 0.001 | inactive: -0.21 | inactive: -0.011 |  |  | inactive: 0.145 |  | inactive: -0.008 | inactive: 0.239 | inactive: -0.156 |  | inactive: -0.114 | inactive: -0.06 |  | inactive: -0.196 | inactive: 0.223 | 
